Source: PubChem BioAssay AID1347426 (Functional Genomics Laboratory (NCATS/FGL), 2020)
The campaign covered roughly 31,000 sequences. About 1,400 (4.5%) were called active.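 The calls were made as follows: active = median seed-adjusted z-score above 1 or below -1; inactive = the rest.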 The list shows a part of the results.

Assay: Novel Modifiers of Survival Motor Neuron (SMN) Protein: Gene Identification via Genome-wide siRNA Screen;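 also: luminescence tracks full-length SMN protein made from the SMN2 reporter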
Conditions: HEK293T SMN2-luciferase reporter, siRNA knockdown, 72 h; actives lie on both sides
In short: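 Luciferase signal, proportional to full-length SMN made from an SMN2 cDNA reporter in stable HEK293T cells, was read 72 h after siRNA reverse transfection. Values were expressed as MAD scores after non-targeting-control normalization and log10 conversion; seed analysis flagged off-targets.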

| Sequence | median seed-adjusted z-score |
| --- | --- |
| GCACCAGGGAAGACCCUAATT against COX5B | inactive: 0.45 |
| GGGCUGUUGAGGAAGAAGATT against FKBP8 | inactive: -0.304 |
| GGAGGCAACUGAUAGACUATT against DUSP14 | inactive: 0.0654 |
| GCUAAGAUGAUGGUAAAUATT against PRSS35 | inactive: -0.0119 |
| CACCAGUGCUUGUAAGCGATT against EOMES | inactive: -0.0248 |
| GCAUCGUCAUGGUGUACUUTT against TM9SF4 | inactive: -0.0191 |
| GCAUCGUCAUGAGUAUGUATT against XDH | inactive: 0.806 |
| GGAAAGUUAAGGUCGAUGATT against KTN1 | inactive: -0.233 |
| GCCUUAAGGUAUUCGUGUATT against EXTL1 | inactive: 0 |
| GAGCACUGCUACGACAUCUTT against DPP7 | inactive: -0.217 |
| CAGUUGACAUCAGAGGAUATT against AKR1C4 | inactive: -0.0323 |
| GAAUAUCCCUGAAUACGAATT against CHD3 | inactive: 0.589 |
| GAUCUGUGCUAUACUGACATT against EFTUD2 | active: -1.25 |
| AGCUAACAGCGGCUCAAGATT against NR1H2 | inactive: 0.069 |
| AGAUGAUCAGCAGAAUUGATT against CSNK1A1L | inactive: -0.5 |
| GCGUAUAAUCUAACUGGUUTT against ATRNL1 | inactive: -0.142 |
| GGCAGAGCCUGACCACUUUTT against LOC100137047-PLA2G4B | inactive: -0.022 |
| GCCUCAUAAUGAACGAAGATT against HEPHL1 | inactive: 0.0681 |
| ACGCAUGUGUGAUCACAAATT against PSMB10 | inactive: 0.00939 |
| GGUAUUUAUUGGACCCAGATT against KLF2 | inactive: 0.359 |
| GCUUACGGCUUAGACAAAATT against HSPA8 | inactive: 0.462 |
| AGCUGGUGUUGAUGCCCAATT against SCARB1 | inactive: 0.0715 |

| Sequence | median seed-adjusted z-score |
| --- | --- |
| ACAUGAUCUAUGACUCGUATT against FAM57A | inactive: 0.0434 |
| GCAUCUACCUCCUACGAGATT against ZSWIM2 | inactive: -0.199 |
| CUCUGACAGUCUCAUCUUUTT against SPNS1 | inactive: -0.0598 |
| GACCAAUGCUGCUGACAAATT against UNQ9391 | inactive: -0.312 |
| CCGCAGUGGAAAUACCAUATT against ANGEL1 | inactive: -0.332 |
| GGCAAAGUCUACAAGGUAATT against MYO3B | inactive: 0.51 |
| GCCUAUUGAUUUCGAGGAATT against CNTN5 | inactive: -0.236 |
| CUCUCGUAGUGGAACUAAUTT against DGKE | inactive: -0.0589 |
| GAUAUUCACCAGAACAUGATT against AP1G1 | inactive: 0.0802 |
| GAGAGUAAGCAGAAUGAAATT against GJB6 | inactive: 0.0376 |
| CAAGGACUCCCUUUACGGUTT against QPCTL | inactive: -0.422 |
| ACAUCAACAUCUUCGCAAUTT against CYP4F8 | inactive: 0.756 |
| GCUACAUCUGGGUAGGAAATT against SCIN | inactive: 0.509 |
| GAGUGGUUCUUGAUGCUCATT against MAPK8IP2 | inactive: 0.284 |
| AUCUUCAAUUUUUACCCAATT against DPYSL4 | inactive: 0.71 |
| GGACCUUGUUAACAGUGGATT against APOBEC1 | inactive: -0.323 |
| CCAACAUUCAAGUAACGCATT against SLTM | inactive: 0.547 |
| UGACCGACCUCAUCCGUAATT against PLA2G6 | inactive: -0.123 |
| GAGCAGAUGUAUGAACAUUTT against SP140 | inactive: 0.186 |
| CGGCAACUUCAAUAACAGUTT against LPHN1 | active: -1.03 |
| GAUGAACCCUGGAACUUCATT against ZNF354B | inactive: 0.393 |
| UCAUCUACAGGGAGACUUATT against SOAT2 | inactive: 0.612 |

| Sequence | median seed-adjusted z-score |
| --- | --- |
| GCUCGUUACUAGCAUCGUATT against NEO1 | inactive: 0.16 |
| AGCUCAACCAUAACGUGAATT against DIRAS2 | active: -1.25 |
| CUAUCCACCUUCCUACAAATT against CNR2 | inactive: 0.33 |
| AAUACCACAUGGAAAUGAATT against OSBPL10 | inactive: 0.247 |
| GGUUUGAGCUGGAUCCAGATT against SLC5A6 | inactive: 0.994 |
| UGGUCAACUAGAAUACAUATT against RGPD5 | inactive: -0.0931 |
| GGACACCACAGUACCUAAATT against IL22RA1 | active: -1.14 |
| CAUCUGUACUCAGAUAUUATT against NPFFR2 | inactive: 0.0554 |
| GAUGAGGUCUUGUCCGAAATT against HECW1 | inactive: -0.878 |
| GGGCGAAGGUUUUCGGUAUTT against ABCA3 | inactive: -0.363 |
| GGAGGACUCCAGAAGAUGATT against ATF3 | inactive: -0.000485 |
| CCCUACAAUUCACUCCUGATT against TUBG2 | inactive: 0 |
| CAACCUUAUUAUCAUUGAATT against SF3B3 | active: -2.53 |
| GCGAUCAUUUUGUUAGAAATT against ZNF521 | inactive: -0.331 |
| CCCUCUAAGACCAAACUUATT against STAR | inactive: 0.478 |
| GCUACGACCUGAAACUCUATT against GNAZ | inactive: -0.604 |
| GCACAUCAAGUUCUAUACATT against SLCO2A1 | inactive: -0.0778 |
| GGAGAUAAAUACUAUGGAUTT against ZNF605 | inactive: -0.596 |
| CGAGCAAUCAAGCAGAUCATT against EIF4A3 | inactive: 0.126 |
| GCAGAUCCAGGAAAACGGATT against TRIM67 | inactive: -0.431 |
| GGUUCUGAAAUGUUCGUCATT against ZDHHC22 | inactive: 0.00446 |
| CUGCAUUUCUUGAGCAUAATT against CDC45L | inactive: -0.599 |

A section of the results above, as a working copy:

| Sequence | median seed-adjusted z-score |
| --- | --- |
| CAACCUUAUUAUCAUUGAATT against SF3B3 | active: -2.53 |
| GCGAUCAUUUUGUUAGAAATT against ZNF521 | inactive: -0.331 |
| CCCUCUAAGACCAAACUUATT against STAR | inactive: 0.478 |
| GCUACGACCUGAAACUCUATT against GNAZ | inactive: -0.604 |
| GCACAUCAAGUUCUAUACATT against SLCO2A1 | inactive: -0.0778 |
| GGAGAUAAAUACUAUGGAUTT against ZNF605 | inactive: -0.596 |

(continued)

| Sequence | median seed-adjusted z-score |
| --- | --- |
| ACAUGACGAGGGUCUAUUATT against RAB38 | inactive: -0.165 |
| CGUUCGGGCUCAUCUUUUATT against PSEN2 | inactive: -0.147 |
| GGGAUCAACUUAGAAGAGATT against POU6F1 | inactive: 0.978 |
| GGCAGACACUGAGAACUUATT against GRPEL1 | inactive: 0 |
| CUCAUACAGUCUCAACAGATT against GTF2A2 | inactive: 0.0457 |
| GGAAAAUCACAUUACUACATT against CTBP2 | inactive: -0.241 |
| CUGCAUCACUCUCACUUUATT against CH25H | inactive: -0.264 |
| GUCGUGAUGUGAGUAGGUATT against TAF15 | inactive: 0.357 |
| CUCUUUGACCGGUUGCUCATT against EGLN2 | inactive: -0.349 |
| GUAUCAACGGGACAGAUGATT against HOMER1 | inactive: 0 |
| GCUCAGAUCGAGGAAUGCATT against TCEA2 | inactive: 0.552 |
| GCAGAAAGGUGUAACAUAATT against DDI2 | active: 1.27 |
| CUCUGGAGCUCGACAAAAATT against DHRS7C | inactive: -0.398 |
| AUCCAUUGGUUGUCCAUCATT against TM9SF1 | inactive: 0.14 |
| GGGCUGUACUGAUACUCCATT against ARSG | inactive: -0.133 |
| UGGAGACGCAAGAACAAAATT against P2RY11 | inactive: 0.211 |
| CCAUUGCAAUCAACACCAATT against ALOX5 | inactive: -0.201 |
| GGCUGCAGGUCACACUUGATT against SHARPIN | inactive: -0.00778 |
| AGACCACGCUCAGAGCUCATT against NXPH3 | inactive: 0.056 |
| CGUUCAGACCAGCUCAAAATT against WT1 | inactive: 0.236 |
| GCAUCUAUGUAACAAAGAUTT against DLG4 | inactive: -0.498 |
| CAGAUAUUAUGAAGAAUUUTT against GALNS | inactive: 0.0287 |

| Sequence | median seed-adjusted z-score |
| --- | --- |
| GAAUUAUCUCUACAGUGAATT against RPP30 | inactive: -0.656 |
| GGGACUUAGCAAAAAGUCATT against ZNF169 | inactive: 0 |
| GCUCUACGAAGAUCUGGAATT against VHL | inactive: -0.0797 |
| CAGAUACUGUGAUACGGAUTT against PDK1 | inactive: -0.00904 |
| CACCAGCUCAAAAACGUAATT against BTK | inactive: -0.0648 |
| CCACUGGAAUGGUACUUAUTT against UBR1 | inactive: -0.775 |
| UGAGUUGCCCUGAUUUGAATT against AIF1 | inactive: -0.0293 |
| GCUGGGCCGAGUACCUUAATT against PDX1 | inactive: 0 |
| GGAGCUUCGCCAAGACUCATT against OTP | inactive: 0.00717 |
| CCUUCAAUGUGGGCUACCATT against DEGS2 | inactive: -0.305 |
| AGACCACCAAGGUUUCUUUTT against KCNH6 | inactive: 0.424 |
| CCAGCACGUUCAAACUGAUTT against SLC27A5 | inactive: 0.441 |
| GCAACCACCAAGAGUUUGATT against KCNS1 | inactive: -0.167 |
| CCAGUUUACAGUAGCUAUATT against CPNE4 | inactive: -0.0933 |
| GCAUCACCUUCUUUCGGAUTT against UNC13A | active: -2.1 |
| GGACCUAGUGUGAGCAUAATT against COL14A1 | inactive: 0.19 |
| GGAUGGACAUUCGCAAAGUTT against PDXK | inactive: -0.247 |
| CAACCUUUCUUGUUAGUAATT against DHRS7 | inactive: 0.255 |
| GACUUGAUUGUAACCAAUATT against AMT | inactive: -0.506 |
